Assay results reported in publication doi:10.1101/2025.07.27.666075.
These are yes or no findings as the source states them, for the method shown. Binding seen in cells or lysates may run through a third protein. Some binding calls cover weakened binding; strength is not graded here.

Protein sequences, listed by entry. Tags and fused reporters are not part of them.
UniProt Q15154: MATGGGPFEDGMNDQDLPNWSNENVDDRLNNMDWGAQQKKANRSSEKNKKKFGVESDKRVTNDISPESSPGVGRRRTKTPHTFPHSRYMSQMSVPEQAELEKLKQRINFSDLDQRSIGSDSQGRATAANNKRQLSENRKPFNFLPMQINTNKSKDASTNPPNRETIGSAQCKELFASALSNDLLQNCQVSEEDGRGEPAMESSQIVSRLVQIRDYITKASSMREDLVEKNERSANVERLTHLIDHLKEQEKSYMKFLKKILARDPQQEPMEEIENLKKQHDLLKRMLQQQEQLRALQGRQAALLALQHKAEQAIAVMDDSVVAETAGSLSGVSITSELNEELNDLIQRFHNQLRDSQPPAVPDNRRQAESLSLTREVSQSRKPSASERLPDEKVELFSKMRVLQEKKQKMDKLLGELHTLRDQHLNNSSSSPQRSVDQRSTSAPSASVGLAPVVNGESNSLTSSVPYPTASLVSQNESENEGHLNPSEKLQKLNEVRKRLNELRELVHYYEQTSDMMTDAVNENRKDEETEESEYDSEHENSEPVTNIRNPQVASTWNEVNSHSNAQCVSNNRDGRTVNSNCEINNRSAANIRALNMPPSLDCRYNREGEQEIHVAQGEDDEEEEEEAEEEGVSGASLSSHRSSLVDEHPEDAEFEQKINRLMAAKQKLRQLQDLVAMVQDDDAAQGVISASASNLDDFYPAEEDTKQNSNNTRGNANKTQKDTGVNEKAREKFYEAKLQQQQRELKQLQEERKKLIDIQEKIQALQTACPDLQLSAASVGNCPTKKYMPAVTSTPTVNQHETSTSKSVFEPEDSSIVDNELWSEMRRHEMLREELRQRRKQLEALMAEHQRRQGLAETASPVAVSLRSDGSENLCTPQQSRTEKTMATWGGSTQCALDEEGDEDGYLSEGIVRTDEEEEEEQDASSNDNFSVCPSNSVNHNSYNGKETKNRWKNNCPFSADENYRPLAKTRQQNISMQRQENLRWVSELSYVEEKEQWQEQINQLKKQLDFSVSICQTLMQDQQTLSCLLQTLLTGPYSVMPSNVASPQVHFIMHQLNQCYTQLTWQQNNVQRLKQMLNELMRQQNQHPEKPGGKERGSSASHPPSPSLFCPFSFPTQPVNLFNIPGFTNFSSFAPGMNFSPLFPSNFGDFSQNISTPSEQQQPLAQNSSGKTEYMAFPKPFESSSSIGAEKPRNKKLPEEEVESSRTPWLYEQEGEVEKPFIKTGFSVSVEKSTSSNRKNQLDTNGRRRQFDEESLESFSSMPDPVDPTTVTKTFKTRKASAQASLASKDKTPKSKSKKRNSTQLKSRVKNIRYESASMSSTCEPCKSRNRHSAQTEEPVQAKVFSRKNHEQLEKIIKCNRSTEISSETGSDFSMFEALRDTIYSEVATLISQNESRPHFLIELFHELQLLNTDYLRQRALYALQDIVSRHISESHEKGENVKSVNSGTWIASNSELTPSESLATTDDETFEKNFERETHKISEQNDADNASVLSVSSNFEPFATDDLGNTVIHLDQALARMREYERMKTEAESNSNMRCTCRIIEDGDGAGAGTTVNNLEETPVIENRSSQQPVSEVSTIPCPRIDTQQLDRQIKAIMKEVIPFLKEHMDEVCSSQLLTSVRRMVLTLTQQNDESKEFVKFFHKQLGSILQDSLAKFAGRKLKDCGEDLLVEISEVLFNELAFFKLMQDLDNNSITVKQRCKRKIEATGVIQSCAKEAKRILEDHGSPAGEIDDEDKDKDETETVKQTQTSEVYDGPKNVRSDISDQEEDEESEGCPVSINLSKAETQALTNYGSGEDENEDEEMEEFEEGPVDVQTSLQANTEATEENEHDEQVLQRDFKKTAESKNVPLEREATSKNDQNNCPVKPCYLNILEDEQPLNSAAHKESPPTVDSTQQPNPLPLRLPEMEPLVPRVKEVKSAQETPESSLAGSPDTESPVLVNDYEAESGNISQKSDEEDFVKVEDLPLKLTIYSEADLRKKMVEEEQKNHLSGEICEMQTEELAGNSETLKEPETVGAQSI
UniProt O15078: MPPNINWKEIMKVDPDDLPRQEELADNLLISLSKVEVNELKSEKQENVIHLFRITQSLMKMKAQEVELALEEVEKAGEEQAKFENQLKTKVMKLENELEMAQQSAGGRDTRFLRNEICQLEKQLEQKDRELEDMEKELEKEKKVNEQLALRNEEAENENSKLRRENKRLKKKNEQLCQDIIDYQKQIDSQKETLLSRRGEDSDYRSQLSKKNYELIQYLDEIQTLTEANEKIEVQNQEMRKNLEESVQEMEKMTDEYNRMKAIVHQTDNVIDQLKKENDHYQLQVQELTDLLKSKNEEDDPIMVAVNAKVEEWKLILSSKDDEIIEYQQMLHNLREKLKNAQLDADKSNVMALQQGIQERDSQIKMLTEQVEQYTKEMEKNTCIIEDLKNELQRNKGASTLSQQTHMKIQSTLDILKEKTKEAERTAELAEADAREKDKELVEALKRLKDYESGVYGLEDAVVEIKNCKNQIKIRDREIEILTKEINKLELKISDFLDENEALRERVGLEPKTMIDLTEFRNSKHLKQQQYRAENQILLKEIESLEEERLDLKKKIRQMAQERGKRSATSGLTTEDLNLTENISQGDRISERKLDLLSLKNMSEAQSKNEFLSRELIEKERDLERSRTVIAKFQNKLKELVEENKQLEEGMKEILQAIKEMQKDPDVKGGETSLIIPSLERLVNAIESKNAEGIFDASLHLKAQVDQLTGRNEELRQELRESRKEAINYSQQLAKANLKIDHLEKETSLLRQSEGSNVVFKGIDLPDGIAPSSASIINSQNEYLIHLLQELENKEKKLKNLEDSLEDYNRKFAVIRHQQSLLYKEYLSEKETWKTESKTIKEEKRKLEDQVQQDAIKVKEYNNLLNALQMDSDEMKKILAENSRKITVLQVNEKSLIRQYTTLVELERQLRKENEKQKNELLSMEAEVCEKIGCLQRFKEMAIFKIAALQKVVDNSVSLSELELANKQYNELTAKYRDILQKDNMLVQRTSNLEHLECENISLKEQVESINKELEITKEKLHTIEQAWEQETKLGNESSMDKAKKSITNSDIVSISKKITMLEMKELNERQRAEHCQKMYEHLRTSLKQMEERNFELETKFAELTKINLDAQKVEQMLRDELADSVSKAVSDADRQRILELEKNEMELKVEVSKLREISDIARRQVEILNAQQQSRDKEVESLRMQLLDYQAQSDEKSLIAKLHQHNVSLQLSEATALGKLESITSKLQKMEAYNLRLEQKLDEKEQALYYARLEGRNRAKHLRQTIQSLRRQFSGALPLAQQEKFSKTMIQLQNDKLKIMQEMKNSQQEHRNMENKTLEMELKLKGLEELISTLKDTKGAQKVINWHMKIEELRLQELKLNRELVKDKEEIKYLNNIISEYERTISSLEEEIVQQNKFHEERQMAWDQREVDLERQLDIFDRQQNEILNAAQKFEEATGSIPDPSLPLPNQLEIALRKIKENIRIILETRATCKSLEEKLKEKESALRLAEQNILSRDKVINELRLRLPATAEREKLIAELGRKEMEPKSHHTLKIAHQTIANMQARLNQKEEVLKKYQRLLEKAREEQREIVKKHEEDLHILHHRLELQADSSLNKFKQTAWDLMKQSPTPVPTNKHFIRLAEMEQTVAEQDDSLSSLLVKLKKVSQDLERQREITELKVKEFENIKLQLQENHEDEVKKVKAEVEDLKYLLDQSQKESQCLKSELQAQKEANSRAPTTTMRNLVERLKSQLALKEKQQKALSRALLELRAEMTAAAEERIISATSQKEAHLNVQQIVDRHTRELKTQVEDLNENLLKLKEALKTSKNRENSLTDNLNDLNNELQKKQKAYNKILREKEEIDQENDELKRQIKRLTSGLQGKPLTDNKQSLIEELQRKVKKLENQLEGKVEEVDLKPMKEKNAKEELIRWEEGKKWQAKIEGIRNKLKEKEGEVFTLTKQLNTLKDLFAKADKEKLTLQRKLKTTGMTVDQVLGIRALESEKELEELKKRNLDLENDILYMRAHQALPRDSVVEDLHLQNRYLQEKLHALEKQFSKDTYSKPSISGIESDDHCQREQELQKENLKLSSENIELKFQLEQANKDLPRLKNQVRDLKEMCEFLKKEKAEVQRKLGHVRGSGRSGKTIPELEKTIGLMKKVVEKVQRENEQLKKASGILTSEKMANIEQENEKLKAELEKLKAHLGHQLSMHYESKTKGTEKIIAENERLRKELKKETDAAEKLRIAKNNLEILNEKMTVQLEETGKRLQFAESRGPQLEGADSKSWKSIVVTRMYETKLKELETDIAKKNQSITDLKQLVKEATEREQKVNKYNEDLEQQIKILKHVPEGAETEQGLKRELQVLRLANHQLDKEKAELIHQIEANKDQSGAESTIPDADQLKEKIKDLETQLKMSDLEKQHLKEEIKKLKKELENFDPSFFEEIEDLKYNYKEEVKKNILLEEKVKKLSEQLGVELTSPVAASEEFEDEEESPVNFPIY

B1: KIAA0753 (protein, UniProt Q2KHM9 1-967)
chain: MGPGQPASTCVHLAPRTQLDGRSDPKVLQTQNQLQFNRNVPTHSSNLAIRYSCPHAIRIEKLKHSYNESYHCKDADCRVGPDLGSSVSFSVISQERLSYAVHLARRDVKRRQFEKHIKEHHLRSQPQSSQKCGHTKYKIPDHRVERKESKSQAACQCSHQPSKVEISSSGAKVYLYSSHPGQSDLTVPNSPPTHDPGLQPHPRIGDHKNISEQKSLLEVQRLQKELSSCIHKIEEVTKKDRLEEALDPDEERRIRIRRQEQAARSARMLYVLQQQVKEIQEELDKLSPHKIKHTKKSWAMSKLAAAHRGAIRALQMFVTQFTDRGEHPLPARCKELGSLIRQLSLCSVKLDADPSVPDVVIDILQQIEALESLLEKKLSPKKVKKCFSEIRSRFPIGSQKALERWPSTSPKGERRPLTAKDTFPQETSRPSVAKQLLADKYQPDTELPETQRLQSELDVLDADIVLEEGPFILDQSASFKDEVLAVAKTKAGKKKPVTENVPFRKKDTLAPARQQGLRKAERGRQSQPHSKSRVQQTTVSSRLKMNRQPVKDRKAPWIPPNPTSPPASPKCAAWLKVKTSPRDATKEPLQQEDPQEESHLTGAVEHEAARLAWLDAETSKRLKELEELKAKEIDSMQKQRLDWLDAETSRRTKELNELKAEEMYRLQQLSVSATHLADKVEEAVLDRLKPLLVKAQRVNSTTEANIHLKDGSSVNTAKAQPAQEVAAVDFESNNIRQLDDFLEDCASELWAVTHAKILGSETLATVEDSKDSPDLEIMMRRMEEMEKYQESVRQRYNKIAYADPRLWMQEENNDQKISAISEKPLSPHPIRITKTVDRKDPAVNIMLERPCNGNSLDESVGTEEGSEKREAPLLSLAEDSQQKEGRAPLFVPPGMQHSIGDYCSRFEQYLRIISHEAVGSFNPWLIAESFSEELVDEALGAVAAELQDMCEDYAEAVFTSEFLEAAT
B2: CEP131 (protein, UniProt Q9UPN4 1-1083)
chain: MKGTRAIGSVPERSPAGVDLSLTGLPPPVSRRPGSAATTKPIVRSVSVVTGSEQKRKVLEATGPGGSQAINNLRRSNSTTQVSQPRSGSPRPTEPTDFLMLFEGSPSGKKRPASLSTAPSEKGATWNVLDDQPRGFTLPSNARSSSALDSPAGPRRKECTVALAPNFTANNRSNKGAVGNCVTTMVHNRYTPSERAPPLKSSNQTAPSLNNIIKAATCEGSESSGFGKLPKNVSSATHSARNNTGGSTGLPRRKEVTEEEAERFIHQVNQATVTIQRWYRHQVQRRGAGAARLEHLLQAKREEQRQRSGEGTLLDLHQQKEAARRKAREEKARQARRAAIQELQQKRALRAQKASTAERGPPENPRETRVPGMRQPAQELSPTPGGTAHQALKANNTGGGLPAAGPGDRCLPTSDSSPEPQQPPEDRTQDVLAQDAAGDNLEMMAPSRGSAKSRGPLEELLHTLQLLEKEPDVLPRPRTHHRGRYAWASEVTTEDDASSLTADNLEKFGKLSAFPEPPEDGTLLSEAKLQSIMSFLDEMEKSGQDQLDSQQEGWVPEAGPGPLELGSEVSTSVMRLKLEVEEKKQAMLLLQRALAQQRDLTARRVKETEKALSRQLQRQREHYEATIQRHLAFIDQLIEDKKVLSEKCEAVVAELKQEDQRCTERVAQAQAQHELEIKKLKELMSATEKARREKWISEKTKKIKEVTVRGLEPEIQKLIARHKQEVRRLKSLHEAELLQSDERASQRCLRQAEELREQLEREKEALGQQERERARQRFQQHLEQEQWALQQQRQRLYSEVAEERERLGQQAARQRAELEELRQQLEESSSALTRALRAEFEKGREEQERRHQMELNTLKQQLELERQAWEAGRTRKEEAWLLNREQELREEIRKGRDKEIELVIHRLEADMALAKEESEKAAESRIKRLRDKYEAELSELEQSERKLQERCSELKGQLGEAEGENLRLQGLVRQKERALEDAQAVNEQLSSERSNLAQVIRQEFEDRLAASEEETRQAKAELATLQARQQLELEEVHRRVKTALARKEEAVSSLRTQHEAAVKRADHLEELLEQHRRPTPSTK

These molecules were tested against FLAG-PCM1 (Pericentriolar Material-1) (human) (UniProt Q15154) (assay: co-IP).

binding, binds:
CEP290 (from UniProt O15078 1-2479)
B1
B2
